{
  "sequences": {"note": "Sequences of proteins named here, by UniProt entry; tags and fusion partners are left off. A change or cut given only in a name is not applied to a line headed by its entry. A line that says so, or that is headed by a name, gives the form on record, which may keep a tag or linker.", "CD44 standard form (CD44s), endogenous in MDA-MB-231 cells (human (endogenous in MDA-MB-231)) (P16070, form named)": "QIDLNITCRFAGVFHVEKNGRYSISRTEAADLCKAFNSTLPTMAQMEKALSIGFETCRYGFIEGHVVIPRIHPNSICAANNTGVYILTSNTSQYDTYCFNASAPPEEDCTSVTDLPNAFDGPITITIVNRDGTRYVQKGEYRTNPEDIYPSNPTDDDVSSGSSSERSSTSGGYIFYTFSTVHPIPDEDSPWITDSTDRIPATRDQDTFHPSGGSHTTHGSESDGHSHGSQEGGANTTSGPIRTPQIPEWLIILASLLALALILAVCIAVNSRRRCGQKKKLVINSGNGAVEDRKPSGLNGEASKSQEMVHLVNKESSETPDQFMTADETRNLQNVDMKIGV"},
  "source": "paper PMC9581534",
  "binders": {"B1": {"name": "CD81, endogenous in MDA-MB-231 and TN1 PDX cells (protein, UniProt P60033 1-236)", "chain": "MGVEGCTKCIKYLLFVFNFVFWLAGGVILGVALWLRHDPQTTNLLYLELGDKPAPNTFYVGIYILIAVGAVMMFVGFLGCYGAIQESQCLLGTFFTCLVILFACEVAAGIWGFVNKDQIAKDVKQFYDQALQQAVVDDDANNAKAVVKTFHETLDCCGSSTLTALTTSVLKNNLCPSGSNIISNLFKEDCHQKIDDLFSGKLYLIGIAAIVVAVIMIFEMILSMVLCCGIRNSSVY"}},
  "biological_target": "CD44 standard form (CD44s), endogenous in MDA-MB-231 cells (human (endogenous in MDA-MB-231)) (UniProt P16070)",
  "test": "co-IP; endogenous proteins; lysate precleared with Protein A/B PLUS agarose beads, 100 µg lysate incubated with CD44 antibody overnight, then beads overnight; membrane fraction of MDA-MB-231, total lysate of TN1 PDX cells; immunoblot for CD44 and CD81; CD44KO cells as control",
  "note": "Results are given in words; binding and its absence hold for the method and conditions named. In cells and extracts the contact can be indirect. Some entries that bind do so weakly or less than the wild type.",
  "data": [
    {"binder": "B1", "values": [
      {"measurement": "binding", "result": "binds"}
    ]}
  ]
}
